Some entries share one result that the patent states for a list of compounds.
System: Rat cortical neurons
Assay: Duration of neuroprotection afforded by TAT-NR2B9c in the face of excitotoxic insults (NMDA-induced cell death, pyknotic nuclei as % of total)
Type: cell-based
Settings: peptide 10 μM for 1 hr, then washout
Description: Rat cortical neurons, taken from E21 rats, were cultured for 7-9 days in vitro in Neurobasal-A medium+B-27 supplement (both invitrogen), 1 mM glutamine, +50 units/ml penicillin, 50 μg/ml streptomycin. • 1. At varying times prior to compound exposure, neurons were removed from Neurobasal-A based culture medium, and placed into “transfection medium” (TM; Bading et al. (1993), Science 260, 181-186): 10% (Minimum Essential Medium, invitrogen (21090022), containing Earles salt, but no L-glutamine), 90% Salt-Glucose-Glycine (SGG) medium SGG: 114 mM NaCl, 0.219% NaHCO3, 5.292 mM KCl, 1 mM MgCl2, 2 mM CaCl2, 10 mM HEPES, 1 mM Glycine, 30 mM Glucose, 0.5 mM sodium pyruvate, 0.1% Phenol Red, insulintransferrin-selenite supplement (Sigma, 7.5 μg insulin/ml; 7.5 μg transferrin/ml and 7.5 ng sodium selenite/ml); final osmolarity 325 mosm/l). All subsequent steps took place in TM. • 2. Neurons were then exposed to inventive fusion peptides at 10 μM for 1 hr. (particularly TAT-NR2B9c peptides in L-form (L-TAT-L-NR2B9c sequence YGRKKRRQRRR-KLSSIESDV (SEQ ID NO: 32), identical to US 20030050243) and their D-form (D-TAT-D-NR2B9c, sequence vdseisslk-rrrqrrkkrgyin (SEQ ID NO: 33))) • 3. After 1 hr neurons were washed once in TM to remove peptide. • 4. After a varying period of time, neurons were exposed to NMDA at either 20 or 40 μM for 1 hr, after which neurons are placed in TM for 24 h. • 5. Neurons were fixed (3% paraformaldehyde) and stained (DAPI, 4′,6-Diamidino-2-phenylindole). Number of pyknotic nuclei as a % of total is counted. Experiments were performed in triplicate.

vdseisslk-rrrqrrkkrgy (VDSEISSLKRRRQRRKKRGY; all D-amino acids; Description of sequence D-TAT-D-NR2B9c) [inventive fusion peptide of D-TAT transporter and D-NR2B9c]
protection after washout of the peptide (duration) (40 μM NMDA for 1 hr): up to 4 hrs

YGRKKRRQRRRKLSSIESDV (Description of sequence L-TAT-L-NR2B9c sequence) [comparative compound, identical to US 20030050243, reference compound]
protection after washout of the peptide (duration) (20 μM NMDA for 1 hr): up to 4 hrs | protection after washout of the peptide (duration) (40 μM NMDA for 1 hr): up to 4 hrs
